Measured values as given in patent US12516015B2 (AMALIVE LIMITED, priority 2009, dated 2026).
Read-outs that look alike come from different tables or passages of the source.

NCCC[C@H](N)C(=O)O.O=C(O)Cc1ccccc1 [L-ornithine phenyl acetate]
Results (crystalline form) (Test 148, Anti-Solvent (IPA) Addition Elevated Temperature, diethyl ether): Form II
Results (crystalline form) (Test 149, Anti-Solvent (IPA) Addition Ambient Temperature, diethyl ether): Form II
Results (crystalline form) (Test 150, Anti-Solvent (IPA) Addition (4° C.), diethyl ether): Form II
Results (crystalline form) (Test 151, Anti-Solvent (IPA) Addition (−21° C.), diethyl ether): Form II
Results (crystalline form) (Test 152, Anti-Solvent (Ethanol) Addition Ambient Temperature, diethyl ether): Form II
Results (crystalline form) (Test 153, Anti-Solvent (Ethanol) Addition (4° C.), diethyl ether): Form I
Results (crystalline form) (Test 154, Anti-Solvent (Ethanol) Addition (−21° C.), diethyl ether): Form I/II
Results (crystalline form) (Test 159, Anti-Solvent (IPA) Addition Elevated Temperature, ethylene glycol): Form II
Results (crystalline form) (Test 160, Anti-Solvent (IPA) Addition Ambient Temperature, ethylene glycol): Form II
Results (crystalline form) (Test 161, Anti-Solvent (IPA) Addition (4° C.), ethylene glycol): Form II
Results (crystalline form) (Test 162, Anti-Solvent (IPA) Addition (−21° C.), ethylene glycol): Form II
Results (crystalline form) (Test 163, Anti-Solvent (Ethanol) Addition Ambient Temperature, ethylene glycol): Form II
Results (crystalline form) (Test 164, Anti-Solvent (Ethanol) Addition (4° C.), ethylene glycol): Form II
Results (crystalline form) (Test 165, Anti-Solvent (Ethanol) Addition (−21° C.), ethylene glycol): Form II
Results (crystalline form) (Test 170, Anti-Solvent (IPA) Addition Elevated Temperature, meOAc/water (20%)): Form II
Results (crystalline form) (Test 171, Anti-Solvent (IPA) Addition Ambient Temperature, meOAc/water (20%)): Form II
Results (crystalline form) (Test 172, Anti-Solvent (IPA) Addition (4° C.), meOAc/water (20%)): Form II
Results (crystalline form) (Test 173, Anti-Solvent (IPA) Addition (−21° C.), meOAc/water (20%)): Form II
Results (crystalline form) (Test 174, Anti-Solvent (Ethanol) Addition Ambient Temperature, meOAc/water (20%)): Form II
Results (crystalline form) (Test 175, Anti-Solvent (Ethanol) Addition (4° C.), meOAc/water (20%)): Form I/II
Results (crystalline form) (Test 176, Anti-Solvent (Ethanol) Addition (−21° C.), meOAc/water (20%)): Form II
Results (crystalline form) (Test 181, Anti-Solvent (IPA) Addition Elevated Temperature, meOH/acetone (50:50)): Form II
Results (crystalline form) (Test 182, Anti-Solvent (IPA) Addition Ambient Temperature, meOH/acetone (50:50)): Form II
Results (crystalline form) (Test 183, Anti-Solvent (IPA) Addition (4° C.), meOH/acetone (50:50)): Form II
Results (crystalline form) (Test 184, Anti-Solvent (IPA) Addition (−21° C.), meOH/acetone (50:50)): Form II
Results (crystalline form) (Test 185, Anti-Solvent (Ethanol) Addition Ambient Temperature, meOH/acetone (50:50)): Form II
Results (crystalline form) (Test 186, Anti-Solvent (Ethanol) Addition (4° C.), meOH/acetone (50:50)): Form I
Results (crystalline form) (Test 187, Anti-Solvent (Ethanol) Addition (−21° C.), meOH/acetone (50:50)): Form I/II
Results (crystalline form) (Test 192, Anti-Solvent (IPA) Addition Elevated Temperature, DMF): Form II
Results (crystalline form) (Test 193, Anti-Solvent (IPA) Addition Ambient Temperature, DMF): Form II
Results (crystalline form) (Test 194, Anti-Solvent (IPA) Addition (4° C.), DMF): Form II
Results (crystalline form) (Test 195, Anti-Solvent (IPA) Addition (−21° C.), DMF): Form II
Results (crystalline form of precipitate) (Test 196, Anti-Solvent (Ethanol) Addition Ambient Temperature, solvent DMF): Form II
Results (crystalline form of precipitate) (Test 197, Anti-Solvent (Ethanol) Addition (4° C.), solvent DMF): Form I/II
Results (crystalline form of precipitate) (Test 198, Anti-Solvent (Ethanol) Addition (−21° C.), solvent DMF): Form II
Results (crystalline form of precipitate) (Test 203, Anti-Solvent (IPA) Addition Elevated Temperature, solvent 2-butanol): Form III
Results (crystalline form of precipitate) (Test 204, Anti-Solvent (IPA) Addition Ambient Temperature, solvent 2-butanol): Form II
Results (crystalline form of precipitate) (Test 205, Anti-Solvent (IPA) Addition (4° C.), solvent 2-butanol): Form II
Results (crystalline form of precipitate) (Test 206, Anti-Solvent (IPA) Addition (−21° C.), solvent 2-butanol): Form II
Results (crystalline form of precipitate) (Test 207, Anti-Solvent (Ethanol) Addition Ambient Temperature, solvent 2-butanol): Form II
Results (crystalline form of precipitate) (Test 208, Anti-Solvent (Ethanol) Addition (4° C.), solvent 2-butanol): Form I/II
Results (crystalline form of precipitate) (Test 209, Anti-Solvent (Ethanol) Addition (−21° C.), solvent 2-butanol): Form I/II
Results (crystalline form of precipitate) (Test 214, Anti-Solvent (IPA) Addition Elevated Temperature, solvent cumene): Form II
Results (crystalline form of precipitate) (Test 215, Anti-Solvent (IPA) Addition Ambient Temperature, solvent cumene): Form II
Results (crystalline form of precipitate) (Test 216, Anti-Solvent (IPA) Addition (4° C.), solvent cumene): Form II
Results (crystalline form of precipitate) (Test 217, Anti-Solvent (IPA) Addition (−21° C.), solvent cumene): Form II
Results (crystalline form of precipitate) (Test 218, Anti-Solvent (Ethanol) Addition Ambient Temperature, solvent cumene): Form II
Results (crystalline form of precipitate) (Test 219, Anti-Solvent (Ethanol) Addition (4° C.), solvent cumene): Form II
Results (crystalline form of precipitate) (Test 220, Anti-Solvent (Ethanol) Addition (−21° C.), solvent cumene): Form I/II
Results (crystalline form of precipitate) (Test 225, Anti-Solvent (IPA) Addition Elevated Temperature, solvent ethyl formate): Form II
Results (crystalline form of precipitate) (Test 226, Anti-Solvent (IPA) Addition Ambient Temperature, solvent ethyl formate): Form II
Results (crystalline form of precipitate) (Test 227, Anti-Solvent (IPA) Addition (4° C.), solvent ethyl formate): Form II
Results (crystalline form of precipitate) (Test 228, Anti-Solvent (IPA) Addition (−21° C.), solvent ethyl formate): Form II
Results (crystalline form of precipitate) (Test 229, Anti-Solvent (Ethanol) Addition Ambient Temperature, solvent ethyl formate): Form II
Results (crystalline form of precipitate) (Test 230, Anti-Solvent (Ethanol) Addition (4° C.), solvent ethyl formate): Form I
Results (crystalline form of precipitate) (Test 231, Anti-Solvent (Ethanol) Addition (−21° C.), solvent ethyl formate): Form I/II
Results (crystalline form of precipitate) (Test 236, Anti-Solvent (IPA) Addition Elevated Temperature, solvent isobutyl acetate): Form II
Results (crystalline form of precipitate) (Test 237, Anti-Solvent (IPA) Addition Ambient Temperature, solvent isobutyl acetate): Form II
Results (crystalline form of precipitate) (Test 238, Anti-Solvent (IPA) Addition (4° C.), solvent isobutyl acetate): Form II
Results (crystalline form of precipitate) (Test 239, Anti-Solvent (IPA) Addition (−21° C.), solvent isobutyl acetate): Form III
Results (crystalline form of precipitate) (Test 240, Anti-Solvent (Ethanol) Addition Ambient Temperature, solvent isobutyl acetate): Form II
Results (crystalline form of precipitate) (Test 241, Anti-Solvent (Ethanol) Addition (4° C.), solvent isobutyl acetate): Form II
Results (crystalline form of precipitate) (Test 242, Anti-Solvent (Ethanol) Addition (−21° C.), solvent isobutyl acetate): Form I/II
Results (crystalline form of precipitate) (Test 247, Anti-Solvent (IPA) Addition Elevated Temperature, solvent 3-methyl-1-butanol): Form II
Results (crystalline form of precipitate) (Test 248, Anti-Solvent (IPA) Addition Ambient Temperature, solvent 3-methyl-1-butanol): Form II
Results (crystalline form of precipitate) (Test 249, Anti-Solvent (IPA) Addition (4° C.), solvent 3-methyl-1-butanol): Form II
Results (crystalline form of precipitate) (Test 250, Anti-Solvent (IPA) Addition (−21° C.), solvent 3-methyl-1-butanol): Form II
Results (crystalline form of precipitate) (Test 251, Anti-Solvent (Ethanol) Addition Ambient Temperature, solvent 3-methyl-1-butanol): Form II
Results (crystalline form of precipitate) (Test 252, Anti-Solvent (Ethanol) Addition (4° C.), solvent 3-methyl-1-butanol): Form I/II
Results (crystalline form of precipitate) (Test 253, Anti-Solvent (Ethanol) Addition (−21° C.), solvent 3-methyl-1-butanol): Form I/II
Results (crystalline form of precipitate) (Test 258, Anti-Solvent (IPA) Addition Elevated Temperature, solvent anisole): Form II
Results (crystalline form of precipitate) (Test 259, Anti-Solvent (IPA) Addition Ambient Temperature, solvent anisole): Form II
Results (crystalline form of precipitate) (Test 260, Anti-Solvent (IPA) Addition (4° C.), solvent anisole): Form II
Results (crystalline form of precipitate) (Test 261, Anti-Solvent (IPA) Addition (−21° C.), solvent anisole): Form II/IV
Results (crystalline form of precipitate) (Test 262, Anti-Solvent (Ethanol) Addition Ambient Temperature, solvent anisole): Form II
Results (crystalline form of precipitate) (Test 263, Anti-Solvent (Ethanol) Addition (4° C.), solvent anisole): Form II
Results (crystalline form of precipitate) (Test 264, Anti-Solvent (Ethanol) Addition (−21° C.), solvent anisole): Form I
Results (crystalline form of precipitate) (Test 269, Anti-Solvent (IPA) Addition Elevated Temperature, solvent IPA/isopropyl acetate (1:2)): Form II
Results (crystalline form of precipitate) (Test 270, Anti-Solvent (IPA) Addition Ambient Temperature, solvent IPA/isopropyl acetate (1:2)): Form II
Results (crystalline form of precipitate) (Test 271, Anti-Solvent (IPA) Addition (4° C.), solvent IPA/isopropyl acetate (1:2)): Form II
Results (crystalline form of precipitate) (Test 272, Anti-Solvent (IPA) Addition (−21° C.), solvent IPA/isopropyl acetate (1:2)): Form II
Results (crystalline form of precipitate) (Test 273, Anti-Solvent (Ethanol) Addition Ambient Temperature, solvent IPA/isopropyl acetate (1:2)): Form II
Results (crystalline form of precipitate) (Test 274, Anti-Solvent (Ethanol) Addition (4° C.), solvent IPA/isopropyl acetate (1:2)): Form II
Results (crystalline form of precipitate) (Test 275, Anti-Solvent (Ethanol) Addition (−21° C.), solvent IPA/isopropyl acetate (1:2)): Form I
Results (crystalline form of precipitate) (Test 280, Anti-Solvent (IPA) Addition Elevated Temperature, solvent EtOH: 1% H20): No Solid
Results (crystalline form of precipitate) (Test 281, Anti-Solvent (IPA) Addition Ambient Temperature, solvent EtOH: 1% H20): No Solid
Results (crystalline form of precipitate) (Test 282, Anti-Solvent (IPA) Addition (4° C.), solvent EtOH: 1% H20): No Solid
Results (crystalline form of precipitate) (Test 283, Anti-Solvent (IPA) Addition (−21° C.), solvent EtOH: 1% H20): No Solid
Results (crystalline form of precipitate) (Test 284, Anti-Solvent (Ethanol) Addition Ambient Temperature, solvent EtOH: 1% H20): No Solid
Results (crystalline form of precipitate) (Test 285, Anti-Solvent (Ethanol) Addition (4° C.), solvent EtOH: 1% H20): No Solid
Results (crystalline form of precipitate) (Test 286, Anti-Solvent (Ethanol) Addition (−21° C.), solvent EtOH: 1% H20): No Solid
Results (crystalline form of precipitate) (Test 291, Anti-Solvent (IPA) Addition Elevated Temperature, solvent EtOH: 3% H20): No Solid
